Data from patent publication US20200248271A1.
These are yes or no findings as the source states them, for the method shown. Binding seen in cells or lysates may run through a third protein. Some binding calls cover weakened binding; strength is not graded here.

By UniProt entry, the sequences of proteins in these tests, tags left out. Residues count along the entry.
UniProt P27986, residues 2-724: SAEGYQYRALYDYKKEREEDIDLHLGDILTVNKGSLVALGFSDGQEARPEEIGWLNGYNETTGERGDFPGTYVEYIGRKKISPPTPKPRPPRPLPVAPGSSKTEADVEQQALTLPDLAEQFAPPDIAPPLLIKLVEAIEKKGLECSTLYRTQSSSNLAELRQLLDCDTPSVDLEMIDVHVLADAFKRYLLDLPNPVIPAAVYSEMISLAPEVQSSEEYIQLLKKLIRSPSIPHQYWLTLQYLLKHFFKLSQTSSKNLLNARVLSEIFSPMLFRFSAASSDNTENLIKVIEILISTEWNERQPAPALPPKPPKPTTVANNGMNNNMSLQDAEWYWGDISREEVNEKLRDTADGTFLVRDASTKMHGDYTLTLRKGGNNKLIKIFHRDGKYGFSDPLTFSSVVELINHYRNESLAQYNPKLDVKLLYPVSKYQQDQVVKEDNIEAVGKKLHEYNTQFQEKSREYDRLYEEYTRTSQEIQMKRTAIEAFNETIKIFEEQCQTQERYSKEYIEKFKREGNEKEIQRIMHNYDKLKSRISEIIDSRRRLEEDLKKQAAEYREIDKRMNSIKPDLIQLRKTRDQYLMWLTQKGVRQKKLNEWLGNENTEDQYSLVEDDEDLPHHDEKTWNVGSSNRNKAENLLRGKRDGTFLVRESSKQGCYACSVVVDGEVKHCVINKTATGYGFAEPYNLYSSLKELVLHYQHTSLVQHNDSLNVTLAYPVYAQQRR
UniProt P35568: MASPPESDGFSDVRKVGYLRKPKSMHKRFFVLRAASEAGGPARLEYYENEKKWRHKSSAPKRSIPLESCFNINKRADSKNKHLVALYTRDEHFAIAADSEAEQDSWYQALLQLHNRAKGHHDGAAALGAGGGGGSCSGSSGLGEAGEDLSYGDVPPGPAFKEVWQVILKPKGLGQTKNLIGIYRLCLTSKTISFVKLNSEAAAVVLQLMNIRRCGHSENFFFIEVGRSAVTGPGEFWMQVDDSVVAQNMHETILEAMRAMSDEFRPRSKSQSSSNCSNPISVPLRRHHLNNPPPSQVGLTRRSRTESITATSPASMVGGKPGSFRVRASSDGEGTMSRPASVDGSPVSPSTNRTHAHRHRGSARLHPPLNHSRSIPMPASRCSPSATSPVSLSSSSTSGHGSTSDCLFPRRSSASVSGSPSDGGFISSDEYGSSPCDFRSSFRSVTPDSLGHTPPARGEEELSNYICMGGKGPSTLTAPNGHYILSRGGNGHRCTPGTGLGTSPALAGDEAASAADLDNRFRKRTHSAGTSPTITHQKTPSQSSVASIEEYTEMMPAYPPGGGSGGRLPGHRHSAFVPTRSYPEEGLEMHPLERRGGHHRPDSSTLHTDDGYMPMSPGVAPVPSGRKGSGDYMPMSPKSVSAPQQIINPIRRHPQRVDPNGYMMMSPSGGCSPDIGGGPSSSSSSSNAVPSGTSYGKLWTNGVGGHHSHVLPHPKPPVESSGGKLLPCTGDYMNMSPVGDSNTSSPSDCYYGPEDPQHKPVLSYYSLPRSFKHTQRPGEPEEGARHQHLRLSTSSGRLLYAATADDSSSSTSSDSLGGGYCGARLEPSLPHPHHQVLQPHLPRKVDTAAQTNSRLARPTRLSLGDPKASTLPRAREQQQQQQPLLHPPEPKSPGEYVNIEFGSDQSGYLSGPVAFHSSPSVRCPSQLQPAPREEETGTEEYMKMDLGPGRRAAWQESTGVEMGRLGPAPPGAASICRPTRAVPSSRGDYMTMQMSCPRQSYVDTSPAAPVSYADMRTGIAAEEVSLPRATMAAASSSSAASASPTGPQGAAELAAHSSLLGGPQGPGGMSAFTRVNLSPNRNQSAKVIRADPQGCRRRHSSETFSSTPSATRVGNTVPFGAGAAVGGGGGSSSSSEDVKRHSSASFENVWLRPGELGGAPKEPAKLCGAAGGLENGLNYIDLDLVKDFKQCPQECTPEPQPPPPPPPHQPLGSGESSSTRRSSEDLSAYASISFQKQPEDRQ

Target: regulatory subunit (p85) of PI3K (human) (UniProt P27986)
Experiment: co-immunoprecipitation and immunoblotting, lysate of CDK12-overexpressing ZR-75-30 cells

Substance: insulin receptor substrate 1 (IRS1) (from UniProt P35568 1-1242)
- binding: binds
